According to patent publication US20160075790A1 (Bristol-Myers Squibb, published 2016):
Results are given in words; binding and its absence hold for the method and conditions named. Some binding calls cover weakened binding; strength is not graded here. Sequences can lack the tags named with a protein.

The chains behind the UniProt entries cited, without tags or fusion partners. Where a name states a change or a piece, a line headed by the entry shows the natural chain unless it says otherwise.
UniProt P29965: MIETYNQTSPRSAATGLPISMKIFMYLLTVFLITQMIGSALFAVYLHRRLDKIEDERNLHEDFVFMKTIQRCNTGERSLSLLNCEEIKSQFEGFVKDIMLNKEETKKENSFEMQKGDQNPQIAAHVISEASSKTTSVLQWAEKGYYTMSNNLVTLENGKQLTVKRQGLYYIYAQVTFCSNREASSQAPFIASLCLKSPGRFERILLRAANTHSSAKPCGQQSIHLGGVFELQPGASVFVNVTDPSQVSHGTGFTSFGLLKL

Molecular target: human isoleucine zipper-CD40L (IZ-hCD40L) (human) (UniProt P29965)
Test: SPR; captured on anti-human IgG Fc surface, IZ-hCD40L as analyte

| Binder | binding |
| --- | --- |
| 2h572-635-CT Long Fc (Fc fusion, not shown: linker and CT Long Fc (CT-L2)) EVQLLESGGGLVQPGGSLRLSCAASGFTFNWELMGWARQAPGKGLEWVSGIEGPGDVTYYADSVKGRFTISRDNSKNTLYLQMNSLRAEDTAVYYCVKVGKDSKSDYRGQGTLVTVSS | binds |
| 2h572-6-CT Long Fc (Fc fusion, not shown: linker and CT Long Fc (CT-L2)) EVQLLESGGGLVQPGGSLRLSCAASGFTFNWQLMGWVRQAPGKGLEWVSGIEGPGDVTYYADSVKGRFTISRDNSKNTLYLQMNSLRAEDTAVYYCVKVGKESNSDYRGQGTLVTVSS | binds |
| 2h572-608-CT Long Fc (Fc fusion, not shown: linker and CT Long Fc (CT-L2)) EVQLLESGGGLVQPGGSLRLSCAASGFTFNWELMGWARQAPGKGLEWVSGIEGPGDVTYYADSVKGRFTISRDNSKNTLYLQMNSLRAEDTAVYYCVKVGKESNSDYRGQGTLVTVSS | binds |
| 2h572-614-CT Long Fc (Fc fusion, not shown: linker and CT Long Fc (CT-L2)) EVQLLESGGGLVQPGGSLRLSCAASGFTFNWQLMGWVRQAPGKGLEWVSGIEGPGDVTYYADSVKGRFTISRDNSKNTLYLQMNSLRAEDTAVYYCVKVGKDAKSDYRGQGTLVTVSS | binds |
| 2h572-619-Ctlong Fc (Fc fusion, not shown: linker and CT Long Fc (CT-L2)) EVQLLESGGGLVQPGGSLRLSCAASGFTFNWQLMGWVRQAPGKGLEWVSGIEGPGDVTYYADSVKGRFTISRDNSKNTLYLQMNSLRAEDTAVYYCVKVGKDSRSDYRGQGTLVTVSS | binds |
| 2h572-633-CT Long Fc (Fc fusion, not shown: linker and CT Long Fc (CT-L2)) EVQLLESGGGLVQPGGSLRLSCAASGFTFNWELMGWARQAPGKGLEWVSGIEGPGDVTYYADSVKGRFTISRDNSKNTLYLQMNSLRAEDTAVYYCVKVGKDAKSDYRGQGTLVTVSS | binds |
| 2h572-634-CT Long Fc (Fc fusion, not shown: linker and CT Long Fc (CT-L2)) EVQLLESGGGLVQPGGSLRLSCAASGFTFNWELMGWARQAPGKGLEWVSGIEGPGDVTYYADSVKGRFTISRDNSKNTLYLQMNSLRAEDTAVYYCVKVGKDSRSDYRGQGTLVTVSS | binds |
